Test results as given in PubChem BioAssay AID504847 (National Center for Advancing Translational Sciences (NCATS), 2011).
Hit rate of the full screen: of about 400,000 compounds, about 3,700 (0.93%) were called active. Inconclusive means that the source gave no clear call. Such entries were picked first, then a sample of the others. Calls follow the shape of the dose curve; as a rule, active = well fitted inhibition curve with a large enough effect; inconclusive = small, poorly fitted or top-dose-only effect, or another doubt; inactive = no such curve, though single readings can be large or run the other way. Where the call is inconclusive, the potency comes from a doubtful curve fit.

Amino acid sequences for entries named in this document (tags omitted). A change or cut given only in a name is not applied to a line headed by its entry.
UniProt P11473: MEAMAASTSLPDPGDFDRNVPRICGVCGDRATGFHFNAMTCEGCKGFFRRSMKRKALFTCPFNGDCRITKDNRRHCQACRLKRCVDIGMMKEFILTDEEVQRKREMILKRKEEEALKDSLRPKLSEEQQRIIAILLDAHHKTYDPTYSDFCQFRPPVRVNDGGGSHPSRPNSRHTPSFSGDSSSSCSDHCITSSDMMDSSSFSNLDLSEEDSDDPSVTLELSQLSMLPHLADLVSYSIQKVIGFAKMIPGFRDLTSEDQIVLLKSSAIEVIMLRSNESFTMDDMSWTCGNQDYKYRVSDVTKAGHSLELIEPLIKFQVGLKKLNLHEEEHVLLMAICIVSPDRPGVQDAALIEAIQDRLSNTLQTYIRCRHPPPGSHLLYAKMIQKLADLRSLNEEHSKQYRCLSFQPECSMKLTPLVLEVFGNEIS

Each compound was assayed against Vitamin D3 receptor (Homo sapiens) (UniProt P11473) (assay: Inhibitors of the vitamin D receptor (VDR): qHTS). Conditions: VDR-SRC2-3 peptide fluorescence polarization, 2 h; max response, negative = inhibition: hits give low values.
How it was run: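 Measured by FP: displacement of SRC2-3 coactivator peptide from VDR by library compounds, following a two-hour ambient incubation.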
% is scaled to controls: 0 for no effect and ±100 for the full control effect; potency is read from the fitted curve at half-maximal effect.

Max response, negative = inhibition, inactive:
COc1ccc(NC(=O)CN2C(=O)/C(=C3\SC(=S)N(CCC(=O)O)C3=O)c3ccccc32)cc1 -12.6%
COCCn1nnnc1C(c1cccc(C(F)(F)F)c1)N1CCN(Cc2ccccc2)CC1 (stereo unspecified) -10.7%
CO/N=C/C(=N\Nc1ccc(OC)cc1)C(=O)c1ccc(F)cc1 1.22%
O=C(OCc1cc(=O)n2nc(-c3cccs3)sc2n1)c1ccc(Cl)cc1 6.71%
COc1ccccc1/C=C/C=N/NC(=O)CCn1cnc2ccccc21 -9.35%
CC1=C(C(=O)Nc2ccccc2)C(c2ccccn2)n2ncnc2N1 (stereo unspecified) 13.2%
Cc1nn(CCC(=O)Nc2cc(F)ccc2F)c(=O)c2nn(-c3ccccc3)c(C)c12 11.2%
O=C(COC(=O)CNS(=O)(=O)c1ccc2ccccc2c1)Nc1ccccc1Sc1ccccc1 -9.71%
Cc1ccc(N2CCN(/N=C/c3sccc3C)CC2)cc1 1.96%
Cn1nnc2cc(C(=O)N3CCN(c4ccccn4)CC3)ccc21 -3.22%

Potency, active:
Cc1ccc(/C=C/C(=O)NCc2ccc(S(N)(=O)=O)cc2)o1 89.1 µM
Cc1nc(NC(=O)CCc2ccccc2)sc1C 89.1 µM
CCOC(=O)c1ccc(N2C(=O)C=CC2=O)cc1 50.1 µM
S=C1NC2=C(CCC/C2=C\c2ccccc2)C(c2ccccc2)N1 (stereo unspecified) 89.1 µM

Potency, inconclusive:
CN(Cc1ccco1)C(=O)CCc1nc2sc3c(c2c(=O)[nH]1)CCCC3 56.2 µM [inhibitor, partial curve, poor fit]
CCN=c1scc(C)n1/N=C/c1ccsc1 89.1 µM [inhibitor, single point]
CCCCOC(=O)c1ccc(Nc2ncnc3nc[nH]c23)cc1 5.01 µM [inhibitor, full curve, poor fit]
Cc1cc(C)nc(NNS(=O)(=O)c2c(C)cc(C(C)(C)C)cc2C)n1 89.1 µM [inhibitor, single point]
COc1cccc(/C=C2\SC(=S)N(C(Cc3ccccc3)C(=O)O)C2=O)c1 (stereo unspecified) 56.2 µM [inhibitor, partial curve, poor fit]
COC(=O)Cc1ccc(O)c(N)c1 79.4 µM [inhibitor, partial curve, poor fit]
Cc1ccc(C(C)C)c(OCC(=O)N2CCN(c3ncccn3)CC2)c1 89.1 µM [inhibitor, single point]
O=C1/C(=C\c2ccccc2)CCC/C1=C/c1ccccc1 70.8 µM [inhibitor, partial curve, poor fit]
CCCCCC(=O)O[C@@]1(C(C)=O)CCC2C3CCC4=CC(=O)CC[C@@]4(C)C3CC[C@]21C (stereo partly specified) 39.8 µM [inhibitor, full curve]
Cc1cc(SCC(=O)N(CC(C)C)c2c(N)n(CC(C)C)c(=O)[nH]c2=O)nc2ccccc12 89.1 µM [inhibitor, partial curve, poor fit]
Cc1[nH][nH]c(=O)c1C(c1c(C)[nH][nH]c1=O)c1cn(Cc2ccc(F)cc2)c2ccccc12 56.2 µM [inhibitor, partial curve, poor fit]
COc1ccccc1NC(=S)N1CCN(c2nc(-c3ccccc3)cs2)CC1 89.1 µM [inhibitor, single point]
COc1ccc(N=C2C(=S)N(c3ccc(OC)cc3)C(=NS(=O)(=O)c3ccccc3)N2c2ccccc2)cc1 79.4 µM [inhibitor, partial curve, poor fit]
Cc1occc1C(=O)NNC(=O)Nc1ccc(Cl)c(Cl)c1 70.8 µM [inhibitor, partial curve, poor fit]
CCOC(=O)C1Nc2c(F)cc(C)cc2C2c3ccccc3CC12 (stereo unspecified) 20 µM [inhibitor, full curve]
COc1ccc(-c2cn(-c3ccc(C)cc3)c(S(=O)(=O)CC(=O)Nc3ccc(F)cc3)n2)cc1 100 µM [inhibitor, single point]
Cc1ccc(Cc2c(C)nc3nc(SCC(=O)NC4CCC(C)CC4)nn3c2C)cc1 (stereo unspecified) 28.2 µM [inhibitor, single point]
Cc1ccc(C(=O)/C=C/c2ccccc2[N+](=O)[O-])cc1 17.8 µM [inhibitor, single point]
Cc1ccc(NC(=O)C2C(c3ccccc3)C2(Cl)Cl)c(C)c1 (stereo unspecified) 28.2 µM [inhibitor, single point]
CCCCCCOc1ccc(C(=N)N(CCCC)CCCC)c2ccccc12 31.6 µM [inhibitor, full curve]
O=C(Nc1ccc(-c2nc3cc(Cl)ccc3c(=O)o2)cc1)c1ccco1 89.1 µM [inhibitor, single point]
COc1ccc2c(c1)OC[C@H]1[C@H]2N2C(=O)CN(Cc3ccc(F)cc3)C(=O)[C@@]2(C)[C@H]1c1ccccc1 100 µM [inhibitor, single point]
COC(=O)c1cccc(N(CC(=O)NCC2CCCO2)C(=O)CCC(=O)Nc2cc(C)on2)c1 (stereo unspecified) 89.1 µM [inhibitor, single point]
Cc1ccnc(N2CCC(C(=O)NC3CCCCCC3)CC2)n1 44.7 µM [inhibitor, partial curve, poor fit]
COc1cc(S(=O)(=O)N2CCN(Cc3cccs3)CC2)ccc1NC(C)=O 89.1 µM [inhibitor, single point]
CN(C)C(=O)c1ccc(-c2cc(N(C)Cc3ccco3)ncn2)cc1 50.1 µM [inhibitor, partial curve]
COc1ccc(C(=O)N(Cc2ccco2)Cc2cccs2)c(OC)c1 89.1 µM [inhibitor, partial curve, poor fit]

Sorted by formula weight (smallest number first): some entries from above
Potency, inconclusive:
COc1ccc(C(=O)N(Cc2ccco2)Cc2cccs2)c(OC)c1 89.1 µM [inhibitor, partial curve, poor fit]
CN(Cc1ccco1)C(=O)CCc1nc2sc3c(c2c(=O)[nH]1)CCCC3 56.2 µM [inhibitor, partial curve, poor fit]
COC(=O)c1cccc(N(CC(=O)NCC2CCCO2)C(=O)CCC(=O)Nc2cc(C)on2)c1 (stereo unspecified) 89.1 µM [inhibitor, single point]
